Test results as given in patent US20050048477A1 (published 2005).
No constants are given. Whether binding was seen depends on the method and setting. Some results given as binding are weak or reduced against the parent protein; the word gives no strength.

T1: plasma membrane targeted Cna1p (Myr-Cna1) (yeast) (UniProt P23287)
T1 sequence (chain, N-myristoylation at the N-terminal signal): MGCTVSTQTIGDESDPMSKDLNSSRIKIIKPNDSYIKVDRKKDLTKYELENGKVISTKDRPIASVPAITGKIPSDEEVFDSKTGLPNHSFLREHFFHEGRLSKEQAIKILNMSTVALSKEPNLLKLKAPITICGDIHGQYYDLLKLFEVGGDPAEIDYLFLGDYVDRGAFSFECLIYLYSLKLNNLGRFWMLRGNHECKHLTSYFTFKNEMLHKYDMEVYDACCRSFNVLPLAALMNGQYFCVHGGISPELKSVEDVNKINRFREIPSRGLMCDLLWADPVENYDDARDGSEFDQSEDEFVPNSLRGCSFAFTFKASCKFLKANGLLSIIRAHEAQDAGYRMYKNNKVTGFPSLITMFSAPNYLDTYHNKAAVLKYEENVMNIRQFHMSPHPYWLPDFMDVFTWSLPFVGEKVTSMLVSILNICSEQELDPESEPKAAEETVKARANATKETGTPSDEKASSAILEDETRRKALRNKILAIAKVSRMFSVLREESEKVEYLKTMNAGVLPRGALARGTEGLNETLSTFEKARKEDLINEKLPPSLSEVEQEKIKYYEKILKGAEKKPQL

T2: Myr-TAF145 (UniProt P46677)
T2 sequence (chain, N-myristoylation at the N-terminal signal): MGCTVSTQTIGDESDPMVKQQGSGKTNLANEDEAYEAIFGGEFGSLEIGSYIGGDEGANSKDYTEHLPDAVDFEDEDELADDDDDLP

B1: Gal80-TBP (protein, UniProt P04387 1-435, looked up)
chain: MDYNKRSSVSTVPNAAPIRVGFVGLNAAKGWAIKTHYPAILQLSSQFQITALYSPKIETSIATIQRLKLSNATAFPTLESFASSSTIDMIVIAIQVASHYEVVMPLLEFSKNNPNLKYLFVEWALACSLDQAESIYKAAAERGVQTIISLQGRKSPYILRAKELISQGYIGDINSIEIAGNGGWYGYERPVKSPKYIYEIGNGVDLVTTTFGHTIDILQYMTSSYFSRINAMVFNNIPEQELIDERGNRLGQRVPKTVPDHLLFQGTLLNGNVPVSCSFKGGKPTKKFTKNLVIDIHGTKGDLKLEGDAGFAEISNLVLYYSGTRANDFPLANGQQAPLDPGYDAGKEIMEVYHLRNYNAIVGNIHRLYQSISDFHFNTKKIPELPSQFVMQGFDFEGFPTLMDALILHRLIESVYKSNMMGSTLNVSNISHYSLMADEERLKEFKEANKIVFDPNTRQVWENQNRDGTKPATTFQSEEDIKRAAPESEKDTSATSGIVPTLQNIVATVTLGCRLDLKTVALHARNAEYNPKRFAAVIMRIREPKTTALIFASGKMVVTGAKSEDDSKLASRKYARIIQKIGFAAKFTDFKIQNIVGSCDVKFPIRLEGLAFSHGTFSSYEPELFPGLIYRMVKPKIVLLIFVSGKIVLTGAKQREEIYQAFEAIYPVLSEFRKM

How the values were obtained:
[1] = molecular target: T1, plasma membrane targeted Cna1p (Myr-Cna1) (yeast); assay: 80-Trap assay in yeast, HIS3 reporter growth; interaction elicited by FK506 at 0.25 µg/mL
Myr-TAF145 = molecular target: T2, Myr-TAF145; assay: 80-Trap assay in yeast, HIS3 reporter growth without galactose

| Molecule | binding [1] | binding (Myr-TAF145) |
| --- | --- | --- |
| Gal80-Fpr1p fusion (from UniProt P04387 1-435; P20081 1-114) | binds | – |
| B1 | – | binds |
